Assay results: US20220370485A1, “COMPOUNDS AND METHODS FOR TREATING OR PREVENTING CARDIOVASCULAR DISEASES AND CONDITIONS” (Lexicon Pharmaceuticals, Inc., priority 2021, published 2022)

What was measured:
[1] = test system: patients with type 2 diabetes mellitus, chronic kidney disease, and additional cardiovascular risk; conditions: T2DM + CKD patients; N = 5292
[2] = test system: patients with type 2 diabetes mellitus recently hospitalized for worsening heart failure; conditions: T2DM + worsening heart failure; N = 608

Compound: CCOc1ccc(Cc2cc([C@@H]3O[C@H](SC)[C@@H](O)[C@H](O)[C@H]3O)ccc2Cl)cc1 [Sotagliflozin, (2S,3R,4R,5S,6R)-2-(4-chloro-3-(4-ethoxybenzyl)phenyl)-6-(methylthio)tetrahydro-2H-pyran-3,4,5-triol]
- Early discontinuation of the trial regimen for reasons other than death or early trial termination - percentage of patients [1]: 10.9%
- Early discontinuation of the trial regimen for reasons other than death or early termination of the trial - percentage of patients [2]: 13.0%
